A word on the IC50: it is the midpoint of a concentration-inhibition curve.

One assay relates to CHIKV. Put plainly: microbe, parasite or virus in culture. Format: cell-based. Conditions: Chikungunya virus, HEK293, read-out: CHIKV IC50.
The test system of another assay is HEK-293 cells. Put plainly: Cell viability, Cell Proliferation Reagent WST-1. In kind it is cell-based. Conditions: Homo sapiens, HEK293, 18 h, read-out: WST-1 IC50. The procedure:
To exclude the possible cytotoxic effects, all compounds were additionally tested using the ‘Cell Proliferation Reagent WST-1' (Roche Diagnostics). HEK-293 cells were treated with the same concentrations of the various substances and 18 h later WST-1 was added. Readout was conducted using the EnVision Multilabel Reader (PerkinElmer).
Background: Formazan colour is commonly taken as a measure of viable cells.

In the case of `CNC(=O)c1ccccc1Sc1ccc2c(/C=C/c3ccccn3)n[nH]c2c1` [Axitinib], the IC50 in the assay on CHIKV came out at 300 nM; with HEK-293 cells, 340 nM.
